Measured values taken from PMC12594208, “SLC25A45 is required for mitochondrial uptake of methylated amino acids and de novo carnitine biosynthesis” (Molecular Cell, 2025).

Columns and labels:
WT SLC25A45-FLAG (human) = biological target: T1, WT SLC25A45-FLAG (human) (UniProt Q8N413); assay: affinity purification with mass spectrometry; FLAG-IP (anti-DYKDDDDK agarose beads, 2 h, 4 °C) from 1 mg isolated mitochondria of SLC25A45 KO AsPC-1 cells expressing empty vector, SLC25A45-FLAG or SLC25A45^R285C-FLAG; digitonin lysis buffer (5 g digitonin/g protein, 25 mM Tris-HCl pH 7.5, 150 mM NaCl); on-bead digestion, label-free quantification; n = 3
T1 sequence: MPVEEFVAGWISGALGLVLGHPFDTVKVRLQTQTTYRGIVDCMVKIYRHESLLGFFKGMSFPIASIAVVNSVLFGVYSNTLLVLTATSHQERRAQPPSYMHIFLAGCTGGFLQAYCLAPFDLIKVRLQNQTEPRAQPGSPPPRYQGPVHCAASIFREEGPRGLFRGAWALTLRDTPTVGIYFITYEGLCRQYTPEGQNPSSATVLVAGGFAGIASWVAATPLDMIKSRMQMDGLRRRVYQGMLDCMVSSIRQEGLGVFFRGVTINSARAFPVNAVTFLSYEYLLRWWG

[1] = biological target: T2, SLC25A45^R285C-FLAG (human) (UniProt Q8N413); assay: as above
T2 sequence: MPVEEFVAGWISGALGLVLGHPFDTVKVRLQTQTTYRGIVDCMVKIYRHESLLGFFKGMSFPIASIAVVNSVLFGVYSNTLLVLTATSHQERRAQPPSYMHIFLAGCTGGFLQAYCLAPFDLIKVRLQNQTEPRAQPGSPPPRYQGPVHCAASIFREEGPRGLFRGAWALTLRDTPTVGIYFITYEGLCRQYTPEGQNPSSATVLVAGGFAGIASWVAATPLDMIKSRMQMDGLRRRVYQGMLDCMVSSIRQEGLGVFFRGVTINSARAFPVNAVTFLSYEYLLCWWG

Binder	binding (WT SLC25A45-FLAG (human))	binding [1]
TIMM8A (protein, UniProt O60220 1-97) MDSSSSSSAAGLGAVDPQLQHFIEVETQKQRFQQLVHQMTELCWEKCMDKPGPKLDSRAEACFVNCVERFIDTSQFILNRLEQTQKSKPVFSESLSD	binds	no binding
SLC25A13 (protein, UniProt Q9UJS0 1-675) MAAAKVALTKRADPAELRTIFLKYASIEKNGEFFMSPNDFVTRYLNIFGESQPNPKTVELLSGVVDQTKDGLISFQEFVAFESVLCAPDALFMVAFQLFDKAGKGEVTFEDVKQVFGQTTIHQHIPFNWDSEFVQLHFGKERKRHLTYAEFTQFLLEIQLEHAKQAFVQRDNARTGRVTAIDFRDIMVTIRPHVLTPFVEECLVAAAGGTTSHQVSFSYFNGFNSLLNNMELIRKIYSTLAGTRKDVEVTKEEFVLAAQKFGQVTPMEVDILFQLADLYEPRGRMTLADIERIAPLEEGTLPFNLAEAQRQKASGDSARPVLLQVAESAYRFGLGSVAGAVGATAVYPIDLVKTRMQNQRSTGSFVGELMYKNSFDCFKKVLRYEGFFGLYRGLLPQLLGVAPEKAIKLTVNDFVRDKFMHKDGSVPLAAEILAGGCAGGSQVIFTNPLEIVKIRLQVAGEITTGPRVSALSVVRDLGFFGIYKGAKACFLRDIPFSAIYFPCYAHVKASFANEDGQVSPGSLLLAGAIAGMPAASLVTPADVIKTRLQVAARAGQTTYSGVIDCFRKILREEGPKALWKGAGARVFRSSPQFGVTLLTYELLQRWFYIDFGGVKPMGSEPVPKSRINLPAPNPDHVGGYKLAVATFAGIENKFGLYLPLFKPSVSTSKAIGGGP	binds	binds
SLC25A3 (protein, UniProt Q00325 50-362) AVEEQYSCDYGSGRFFILCGLGGIISCGTTHTALVPLDLVKCRMQVDPQKYKGIFNGFSVTLKEDGVRGLAKGWAPTFLGYSMQGLCKFGFYEVFKVLYSNMLGEENTYLWRTSLYLAASASAEFFADIALAPMEAAKVRIQTQPGYANTLRDAAPKMYKEEGLKAFYKGVAPLWMRQIPYTMMKFACFERTVEALYKFVVPKPRSECSKPEQLVVTFVAGYIAGVFCAIVSHPADSVVSVLNKEKGSSASLVLKRLGFKGVWKGLFARIIMIGTLTALQWFIYDSVKVYFRLPRPPPPEMPESLKKKLGLTQ	binds	binds

These are yes or no findings as the source states them, for the method shown. In cells and extracts the contact can be indirect. A yes stands for co-enrichment or nearness to the bait. Other partners may have been found. For part of these data: A no says only that the protein was not detected with the bait. Where a sequence is shown, tags or fusion partners need not be part of it.
